Assay results from article PMC6962326.

By UniProt entry, the sequences of proteins in these tests, tags left out.
UniProt P10238: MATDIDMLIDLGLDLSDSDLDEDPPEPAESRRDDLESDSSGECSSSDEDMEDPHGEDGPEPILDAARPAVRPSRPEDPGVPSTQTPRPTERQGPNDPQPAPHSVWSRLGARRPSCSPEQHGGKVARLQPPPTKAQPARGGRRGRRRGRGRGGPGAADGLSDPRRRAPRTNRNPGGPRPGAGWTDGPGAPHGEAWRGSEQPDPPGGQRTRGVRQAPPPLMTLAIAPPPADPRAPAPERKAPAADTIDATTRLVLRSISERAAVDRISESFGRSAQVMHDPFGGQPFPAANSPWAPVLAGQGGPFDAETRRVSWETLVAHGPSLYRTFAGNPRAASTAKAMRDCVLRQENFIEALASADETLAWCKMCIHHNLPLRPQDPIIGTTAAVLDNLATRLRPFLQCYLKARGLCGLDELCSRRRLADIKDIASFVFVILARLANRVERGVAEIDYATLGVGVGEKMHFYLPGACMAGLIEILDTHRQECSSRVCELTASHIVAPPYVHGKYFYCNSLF
UniProt P11940: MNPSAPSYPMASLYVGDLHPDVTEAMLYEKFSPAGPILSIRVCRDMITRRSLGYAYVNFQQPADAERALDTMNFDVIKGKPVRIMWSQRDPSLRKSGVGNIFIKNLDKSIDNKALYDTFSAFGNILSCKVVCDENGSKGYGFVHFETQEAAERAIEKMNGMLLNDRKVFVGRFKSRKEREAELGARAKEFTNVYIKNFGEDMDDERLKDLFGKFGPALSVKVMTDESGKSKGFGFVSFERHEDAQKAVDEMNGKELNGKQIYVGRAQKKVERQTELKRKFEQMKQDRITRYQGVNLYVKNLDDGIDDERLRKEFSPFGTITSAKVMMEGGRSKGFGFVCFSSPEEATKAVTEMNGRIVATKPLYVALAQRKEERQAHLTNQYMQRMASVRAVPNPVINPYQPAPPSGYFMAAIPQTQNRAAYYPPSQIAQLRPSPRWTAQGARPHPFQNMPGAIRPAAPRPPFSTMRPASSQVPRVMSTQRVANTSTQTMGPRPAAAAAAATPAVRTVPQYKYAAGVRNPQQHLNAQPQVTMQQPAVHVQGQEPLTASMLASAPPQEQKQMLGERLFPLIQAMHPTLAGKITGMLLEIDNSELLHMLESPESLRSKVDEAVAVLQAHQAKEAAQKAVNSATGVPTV
UniProt O95639: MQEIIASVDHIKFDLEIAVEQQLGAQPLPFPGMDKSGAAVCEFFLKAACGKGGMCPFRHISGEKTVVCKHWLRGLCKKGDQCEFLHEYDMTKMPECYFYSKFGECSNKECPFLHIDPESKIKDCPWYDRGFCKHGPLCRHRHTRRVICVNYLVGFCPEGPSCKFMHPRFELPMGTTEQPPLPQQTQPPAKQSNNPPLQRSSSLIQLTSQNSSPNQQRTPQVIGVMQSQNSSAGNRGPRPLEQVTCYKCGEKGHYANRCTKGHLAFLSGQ

B1: Symplekin, endogenous (protein, UniProt Q92797 1-1274)
chain: MASGSGDSVTRRSVASQFFTQEEGPGIDGMTTSERVVDLLNQAALITNDSKITVLKQVQELIINKDPTLLDNFLDEIIAFQADKSIEVRKFVIGFIEEACKRDIELLLKLIANLNMLLRDENVNVVKKAILTMTQLYKVALQWMVKSRVISELQEACWDMVSAMAGDIILLLDSDNDGIRTHAIKFVEGLIVTLSPRMADSEIPRRQEHDISLDRIPRDHPYIQYNVLWEEGKAALEQLLKFMVHPAISSINLTTALGSLANIARQRPMFMSEVIQAYETLHANLPPTLAKSQVSSVRKNLKLHLLSVLKHPASLEFQAQITTLLVDLGTPQAEIARNMPSSKDTRKRPRDDSDSTLKKMKLEPNLGEDDEDKDLEPGPSGTSKASAQISGQSDTDITAEFLQPLLTPDNVANLVLISMVYLPEAMPASFQAIYTPVESAGTEAQIKHLARLMATQMTAAGLGPGVEQTKQCKEEPKEEKVVKTESVLIKRRLSAQGQAISVVGSLSSMSPLEEEAPQAKRRPEPIIPVTQPRLAGAGGRKKIFRLSDVLKPLTDAQVEAMKLGAVKRILRAEKAVACSGAAQVRIKILASLVTQFNSGLKAEVLSFILEDVRARLDLAFAWLYQEYNAYLAAGASGSLDKYEDCLIRLLSGLQEKPDQKDGIFTKVVLEAPLITESALEVVRKYCEDESRTYLGMSTLRDLIFKRPSRQFQYLHVLLDLSSHEKDKVRSQALLFIKRMYEKEQLREYVEKFALNYLQLLVHPNPPSVLFGADKDTEVAAPWTEETVKQCLYLYLALLPQNHKLIHELAAVYTEAIADIKRTVLRVIEQPIRGMGMNSPELLLLVENCPKGAETLVTRCLHSLTDKVPPSPELVKRVRDLYHKRLPDVRFLIPVLNGLEKKEVIQALPKLIKLNPIVVKEVFNRLLGTQHGEGNSALSPLNPGELLIALHNIDSVKCDMKSIIKATNLCFAERNVYTSEVLAVVMQQLMEQSPLPMLLMRTVIQSLTMYPRLGGFVMNILSRLIMKQVWKYPKVWEGFIKCCQRTKPQSFQVILQLPPQQLGAVFDKCPELREPLLAHVRSFTPHQQAHIPNSIMTILEASGKQEPEAKEAPAGPLEEDDLEPLTLAPAPAPRPPQDLIGLRLAQEKALKRQLEEEQKLKPGGVGAPSSSSPSPSPSARPGPPPSEEAMDFREEGPECETPGIFISMDDDSGLTEAALLDSSLEGPLPKETAAGGLTLKEERSPQTLAPVGEDAMKTPSPAAEDAREPEAKGNS
B2: CPSF73, endogenous (protein, UniProt Q9UKF6 1-684)
chain: MSAIPAEESDQLLIRPLGAGQEVGRSCIILEFKGRKIMLDCGIHPGLEGMDALPYIDLIDPAEIDLLLISHFHLDHCGALPWFLQKTSFKGRTFMTHATKAIYRWLLSDYVKVSNISADDMLYTETDLEESMDKIETINFHEVKEVAGIKFWCYHAGHVLGAAMFMIEIAGVKLLYTGDFSRQEDRHLMAAEIPNIKPDILIIESTYGTHIHEKREEREARFCNTVHDIVNRGGRGLIPVFALGRAQELLLILDEYWQNHPELHDIPIYYASSLAKKCMAVYQTYVNAMNDKIRKQININNPFVFKHISNLKSMDHFDDIGPSVVMASPGMMQSGLSRELFESWCTDKRNGVIIAGYCVEGTLAKHIMSEPEEITTMSGQKLPLKMSVDYISFSAHTDYQQTSEFIRALKPPHVILVHGEQNEMARLKAALIREYEDNDEVHIEVHNPRNTEAVTLNFRGEKLAKVMGFLADKKPEQGQRVSGILVKRNFNYHILSPCDLSNYTDLAMSTVKQTQAIPYTGPFNLLCYQLQKLTGDVEELEIQEKPALKVFKNITVIQEPGMVVLEWLANPSNDMYADTVTTVILEVQSNPKIRKGAVQKVSKKLEMHVYSKRLEIMLQDIFGEDCVSVKDDSILSVTVDGKTANLNLETRTVECEEGSEDDESLREMVELAAQRLYEALTPVH
B3: CPSF160, endogenous (protein, UniProt Q10570 1-1443)
chain: MYAVYKQAHPPTGLEFSMYCNFFNNSERNLVVAGTSQLYVYRLNRDAEALTKNDRSTEGKAHREKLELAASFSFFGNVMSMASVQLAGAKRDALLLSFKDAKLSVVEYDPGTHDLKTLSLHYFEEPELRDGFVQNVHTPRVRVDPDGRCAAMLVYGTRLVVLPFRRESLAEEHEGLVGEGQRSSFLPSYIIDVRALDEKLLNIIDLQFLHGYYEPTLLILFEPNQTWPGRVAVRQDTCSIVAISLNITQKVHPVIWSLTSLPFDCTQALAVPKPIGGVVVFAVNSLLYLNQSVPPYGVALNSLTTGTTAFPLRTQEGVRITLDCAQATFISYDKMVISLKGGEIYVLTLITDGMRSVRAFHFDKAAASVLTTSMVTMEPGYLFLGSRLGNSLLLKYTEKLQEPPASAVREAADKEEPPSKKKRVDATAGWSAAGKSVPQDEVDEIEVYGSEAQSGTQLATYSFEVCDSILNIGPCANAAVGEPAFLSEEFQNSPEPDLEIVVCSGHGKNGALSVLQKSIRPQVVTTFELPGCYDMWTVIAPVRKEEEDNPKGEGTEQEPSTTPEADDDGRRHGFLILSREDSTMILQTGQEIMELDTSGFATQGPTVFAGNIGDNRYIVQVSPLGIRLLEGVNQLHFIPVDLGAPIVQCAVADPYVVIMSAEGHVTMFLLKSDSYGGRHHRLALHKPPLHHQSKVITLCLYRDLSGMFTTESRLGGARDELGGRSGPEAEGLGSETSPTVDDEEEMLYGDSGSLFSPSKEEARRSSQPPADRDPAPFRAEPTHWCLLVRENGTMEIYQLPDWRLVFLVKNFPVGQRVLVDSSFGQPTTQGEARREEATRQGELPLVKEVLLVALGSRQSRPYLLVHVDQELLIYEAFPHDSQLGQGNLKVRFKKVPHNINFREKKPKPSKKKAEGGGAEEGAGARGRVARFRYFEDIYGYSGVFICGPSPHWLLVTGRGALRLHPMAIDGPVDSFAPFHNVNCPRGFLYFNRQGELRISVLPAYLSYDAPWPVRKIPLRCTAHYVAYHVESKVYAVATSTNTPCARIPRMTGEEKEFETIERDERYIHPQQEAFSIQLISPVSWEAIPNARIELQEWEHVTCMKTVSLRSEETVSGLKGYVAAGTCLMQGEEVTCRGRILIMDVIEVVPEPGQPLTKNKFKVLYEKEQKGPVTALCHCNGHLVSAIGQKIFLWSLRASELTGMAFIDTQLYIHQMISVKNFILAADVMKSISLLRYQEESKTLSLVSRDAKPLEVYSVDFMVDNAQLGFLVSDRDRNLMVYMYLPEAKESFGGMRLLRRADFHVGAHVNTFWRTPCRGATEGLSKKSVVWENKHITWFATLDGGIGLLLPMQEKTYRRLLMLQNALTTMLPHHAGLNPRAFRMLHVDRRTLQNAVRNVLDGELLNRYLYLSTMERSELAKKIGTTPDIILDDLLETDRVTAHF
B4: Fip1, endogenous (protein, UniProt Q6UN15 1-594)
chain: MSAGEVERLVSELSGGTGGDEEEEWLYGGPWDVHVHSDLAKDLDENEVERPEEENASANPPSGIEDETAENGVPKPKVTETEDDSDSDSDDDEDDVHVTIGDIKTGAPQYGSYGTAPVNLNIKTGGRVYGTTGTKVKGVDLDAPGSINGVPLLEVDLDSFEDKPWRKPGADLSDYFNYGFNEDTWKAYCEKQKRIRMGLEVIPVTSTTNKITAEDCTMEVTPGAEIQDGRFNLFKVQQGRTGNSEKETALPSTKAEFTSPPSLFKTGLPPSRNSTSSQSQTSTASRKANSSVGKWQDRYGRAESPDLRRLPGAIDVIGQTITISRVEGRRRANENSNIQVLSERSATEVDNNFSKPPPFFPPGAPPTHLPPPPFLPPPPTVSTAPPLIPPPGFPPPPGAPPPSLIPTIESGHSSGYDSRSARAFPYGNVAFPHLPGSAPSWPSLVDTSKQWDYYARREKDRDRERDRDRERDRDRDRERERTRERERERDHSPTPSVFNSDEERYRYREYAERGYERHRASREKEERHRERRHREKEETRHKSSRSNSRRRHESEEGDSHRRHKHKKSKRSKEGKEAGSEPAPEQESTEATPAE

These molecules were tested against Flag-tagged wild-type ICP27 (herpes simplex virus-1) (UniProt P10238) (assay: co-IP + affinity purification with mass spectrometry; ICP27 immunoprecipitated after transient transfection in 293T cells (no other viral proteins); IP samples analysed by mass spectrometry and western blotting).
B1 was tested, and the binding was “no binding”.

These molecules were tested against HSV-1 immediate early protein ICP27, expressed from wild-type HSV-1 in infected cells (herpes simplex virus-1 (KOS)) (UniProt P10238) (assay: affinity purification with mass spectrometry; ICP27 immunoprecipitated from lysates of WT HSV-1-infected HeLa cells; control: cells infected with the ICP27 null mutant 27LacZ; lysates treated with RNase A/T1 before IP).
With “PABP1, endogenous (from UniProt P11940 1-636)” the binding was “binds”.
With “CPSF30, endogenous (from UniProt O95639 1-269)” the binding was “binds”.
B2 was tested, and the binding was “binds”.
In the case of B3, the binding is reported as “binds”.
With B4 the binding was “binds”.

These are yes or no findings as the source states them, for the method shown. Binding seen in cells or lysates may run through a third protein. These calls come from enrichment with a bait or labelling near it, and not all partners need be listed. For part of these data: A no says only that the protein was not detected with the bait.
